Consider three molecules from US20220153790A1 (TECHNISCHE UNIVERSIT T M NCHEN, published 2022).

Sequences of proteins named here, by UniProt entry; tags and fusion partners are left off. A change or cut given only in a name is not applied to a line headed by its entry.
UniProt P08195: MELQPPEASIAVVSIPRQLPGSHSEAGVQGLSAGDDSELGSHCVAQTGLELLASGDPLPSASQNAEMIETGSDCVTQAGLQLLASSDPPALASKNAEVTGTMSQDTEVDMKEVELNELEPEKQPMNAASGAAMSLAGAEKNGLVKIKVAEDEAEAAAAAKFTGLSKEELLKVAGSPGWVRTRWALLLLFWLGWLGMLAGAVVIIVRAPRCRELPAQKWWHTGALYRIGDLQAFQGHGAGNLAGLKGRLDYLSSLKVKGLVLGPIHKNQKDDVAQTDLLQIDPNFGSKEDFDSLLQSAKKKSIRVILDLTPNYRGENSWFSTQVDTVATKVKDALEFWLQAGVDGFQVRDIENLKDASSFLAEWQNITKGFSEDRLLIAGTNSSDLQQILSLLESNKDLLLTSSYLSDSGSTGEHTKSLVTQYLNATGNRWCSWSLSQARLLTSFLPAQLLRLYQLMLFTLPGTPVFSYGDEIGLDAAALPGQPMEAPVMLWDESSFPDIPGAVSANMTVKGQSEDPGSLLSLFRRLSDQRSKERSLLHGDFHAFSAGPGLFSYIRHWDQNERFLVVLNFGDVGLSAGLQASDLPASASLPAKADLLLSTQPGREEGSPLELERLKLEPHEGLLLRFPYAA

Assay [1] has as its target hCD98hcED with N-terminal Strep-tag II (variant for crystallization) (human) (UniProt P08195). The assay is described as follows: size exclusion chromatography of the 1:1 complex and crystal structure. For orientation: Size exclusion chromatography separates by hydrodynamic size, large species first.
The target is the same in assay [2]. The assay is described as follows: size exclusion chromatography of the 1:1 mixture.
In assay [3] the target is native human CD98hc on human cancer cell lines (human) (UniProt P08195). The assay is described as follows: cytofluorometry and immunofluorescence microscopy.
Assay [4] shares this target. The assay is described as follows: flow cytometry of human cancer cell lines with 1 µM D11vs-PAS200-Cy5.5. (In general: In flow cytometry, cells or beads pass a laser one at a time.)
Assay [5] shares this target. The assay is described as follows: immunofluorescence microscopy, 1 µM conjugate.
Assay [6] shares this target. The assay is described as follows: flow cytometry on SU-DHL-4, Raji, Ramos, DU-145, PC-3 and Caco-2 cells, 1 µM conjugate.
For assay [7] the target is unchanged. In words: competition with D11vs-PAS200-Cy5.5 on cells, 10-fold molar excess, flow cytometry and microscopy.

Substitutions are numbered along the chain they refer to. These are yes or no findings as the source states them, for the method shown. Some entries that bind do so weakly or less than the wild type.

B1: lipocalin variant P3D11 (designed binder)
chain: QDSTSDLIPAPPLSKVPLQQNFQDNQFHGKWYVVGRAGNTGLREDKDPGKMFATIYELKEDKSYNVTYVWFGQKKCMYSIGTFVPGSQPGEFTLGNIKSAPGRTSWLVRVVSTNYNQHAMVFFKSVTQNREGFAITLYGRTKELTSELKENFIRFSKSLGLPENHIVFPVPIDQCIDG
notes: produced soluble in E. coli JM83, monomeric; also called Anticalin P3D11; not shown: C-terminal His6-tag (plasmid pNGAL118)
Turning to B1, the binding entry in assay [1] and in assay [2] was “binds” in each case.

B2: D11vs-PAS200-Cy5.5 (designed binder)
chain: B1 chain with F71S, G81V
modifications: Sulfo-Cyanine5.5 coupled by maleimide chemistry to the engineered C-terminal Cys
notes: also called Cy5.5 labeled PASylated D11vs; Cy5.5-labeled D11vs-PAS200; not shown: C-terminal PAS200 polypeptide (200 Pro, Ala and Ser residues) with an engineered Cys at its end
With B2, the binding result in assay [3], in assay [4], in assay [5] and in assay [6] was “binds” in each case.

B3: D11vs-PAS200 (designed binder, not shown: small tags and cut ends)
chain: B1 chain with F71S, G81V
Turning to B3, the binding result in assay [7] was “binds”.
